These are yes or no findings as the source states them, for the method shown. Binding seen in cells or lysates may run through a third protein. Some results given as binding are weak or reduced against the parent protein; the word gives no strength. Where a sequence is shown, tags or fusion partners need not be part of it.
Biological target: T1, R2D2-Flag (knock-in) (Drosophila (endogenous locus in S2 cells)) (UniProt Q9VLW8)
T1 sequence: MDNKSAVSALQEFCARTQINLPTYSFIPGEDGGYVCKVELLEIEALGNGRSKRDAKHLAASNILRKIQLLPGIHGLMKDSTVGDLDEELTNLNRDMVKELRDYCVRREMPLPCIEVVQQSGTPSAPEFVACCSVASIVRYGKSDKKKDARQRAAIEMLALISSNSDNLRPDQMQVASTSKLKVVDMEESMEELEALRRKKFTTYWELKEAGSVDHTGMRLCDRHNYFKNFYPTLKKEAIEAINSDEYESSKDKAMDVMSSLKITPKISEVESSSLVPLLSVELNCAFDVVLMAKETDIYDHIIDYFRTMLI
Experiment: co-IP; whole cell lysates of knock-in S2 cells; Flag-tagged protein immunoprecipitated with anti-FLAG M2 on Protein G Dynabeads; lysis in 150 mM KAc pH 7.4, 30 mM HEPES pH 7.4, 5 mM MgAc, 1 mM DTT, 15% glycerol, 1% tergitol; Dcr-2 detected by Western blot (anti-Dcr-2 or anti-Strep tag)

Amino acid sequences for entries named in this document (tags omitted).
UniProt A1ZAW0: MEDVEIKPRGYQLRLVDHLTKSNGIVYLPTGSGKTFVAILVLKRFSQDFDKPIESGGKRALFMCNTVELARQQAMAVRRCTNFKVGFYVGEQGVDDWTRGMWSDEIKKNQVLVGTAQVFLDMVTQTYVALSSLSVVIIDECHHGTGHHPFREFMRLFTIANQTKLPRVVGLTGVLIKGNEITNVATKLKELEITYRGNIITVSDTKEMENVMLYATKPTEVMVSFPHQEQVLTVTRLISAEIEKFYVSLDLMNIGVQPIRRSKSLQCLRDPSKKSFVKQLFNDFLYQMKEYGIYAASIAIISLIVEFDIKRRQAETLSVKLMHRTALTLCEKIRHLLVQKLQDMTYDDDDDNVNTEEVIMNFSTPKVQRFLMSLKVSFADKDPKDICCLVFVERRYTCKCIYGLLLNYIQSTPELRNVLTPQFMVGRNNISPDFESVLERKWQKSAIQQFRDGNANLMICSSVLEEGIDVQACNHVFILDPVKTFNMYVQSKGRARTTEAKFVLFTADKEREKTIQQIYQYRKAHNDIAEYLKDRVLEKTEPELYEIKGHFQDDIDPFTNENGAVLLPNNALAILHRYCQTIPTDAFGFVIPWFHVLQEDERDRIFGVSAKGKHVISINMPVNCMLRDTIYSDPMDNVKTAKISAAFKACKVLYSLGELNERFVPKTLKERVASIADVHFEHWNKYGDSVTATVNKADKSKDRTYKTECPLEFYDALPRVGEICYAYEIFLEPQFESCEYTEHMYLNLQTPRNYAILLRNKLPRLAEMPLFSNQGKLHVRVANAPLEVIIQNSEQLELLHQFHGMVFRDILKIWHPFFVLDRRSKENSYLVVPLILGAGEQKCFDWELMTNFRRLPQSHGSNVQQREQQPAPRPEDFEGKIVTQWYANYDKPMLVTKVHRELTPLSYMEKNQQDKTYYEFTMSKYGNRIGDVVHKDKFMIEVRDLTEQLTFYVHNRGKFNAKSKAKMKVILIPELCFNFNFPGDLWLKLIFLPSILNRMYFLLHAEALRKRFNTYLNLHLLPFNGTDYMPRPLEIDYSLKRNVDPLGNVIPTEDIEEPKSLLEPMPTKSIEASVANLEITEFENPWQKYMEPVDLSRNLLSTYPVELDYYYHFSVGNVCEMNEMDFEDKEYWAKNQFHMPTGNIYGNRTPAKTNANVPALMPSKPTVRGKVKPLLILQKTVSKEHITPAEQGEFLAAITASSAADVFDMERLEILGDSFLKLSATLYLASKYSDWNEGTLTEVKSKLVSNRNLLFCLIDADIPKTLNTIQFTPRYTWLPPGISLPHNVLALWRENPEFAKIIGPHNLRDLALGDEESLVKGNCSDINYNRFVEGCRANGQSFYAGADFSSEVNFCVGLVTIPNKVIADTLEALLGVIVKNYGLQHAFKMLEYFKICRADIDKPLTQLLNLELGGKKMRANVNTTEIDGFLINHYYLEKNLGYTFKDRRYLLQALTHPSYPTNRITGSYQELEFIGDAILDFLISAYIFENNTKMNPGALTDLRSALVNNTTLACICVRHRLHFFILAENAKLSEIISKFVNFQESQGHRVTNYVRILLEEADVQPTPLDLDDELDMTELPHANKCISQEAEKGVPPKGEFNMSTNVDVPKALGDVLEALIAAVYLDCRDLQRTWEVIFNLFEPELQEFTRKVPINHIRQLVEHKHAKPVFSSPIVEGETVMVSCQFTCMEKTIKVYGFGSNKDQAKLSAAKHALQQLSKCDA

binding: binds
Substance: Dcr-2-Strep-tag (knock-in) (from UniProt A1ZAW0 1-1722) (enzyme)
